According to patent US20240400659A1:
Results are given in words; binding and its absence hold for the method and conditions named. Some binding calls cover weakened binding; strength is not graded here.

Amino acid sequences for entries named in this document (tags omitted). Residues count along the entry.
UniProt Q99523, residues 78-755: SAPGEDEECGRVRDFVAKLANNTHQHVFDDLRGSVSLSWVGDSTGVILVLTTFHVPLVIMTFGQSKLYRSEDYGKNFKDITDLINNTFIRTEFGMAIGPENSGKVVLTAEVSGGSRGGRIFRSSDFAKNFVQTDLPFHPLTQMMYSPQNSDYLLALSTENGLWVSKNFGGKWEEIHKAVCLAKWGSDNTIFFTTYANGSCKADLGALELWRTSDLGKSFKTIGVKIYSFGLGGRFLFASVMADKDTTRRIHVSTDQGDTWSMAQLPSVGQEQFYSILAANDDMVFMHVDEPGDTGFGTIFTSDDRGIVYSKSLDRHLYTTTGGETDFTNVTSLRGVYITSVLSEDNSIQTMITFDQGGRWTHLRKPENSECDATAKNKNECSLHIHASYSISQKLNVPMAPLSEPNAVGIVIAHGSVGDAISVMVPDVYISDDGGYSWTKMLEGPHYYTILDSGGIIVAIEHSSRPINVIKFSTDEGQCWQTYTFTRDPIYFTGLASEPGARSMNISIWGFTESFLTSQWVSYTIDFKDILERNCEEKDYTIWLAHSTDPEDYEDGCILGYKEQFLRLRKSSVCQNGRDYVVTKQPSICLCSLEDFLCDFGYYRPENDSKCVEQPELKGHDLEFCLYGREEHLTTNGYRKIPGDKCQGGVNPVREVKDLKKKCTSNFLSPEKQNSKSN

What was measured:
[1] = target: Sortilin (UniProt Q99523); assay: pH affinity ELISA, coated target (Example 13)
[2] = target: Sortilin (UniProt Q99523); assay: pH affinity ELISA, coated target, FIG. 3D
[3] = target: very low-density lipoprotein receptor (UniProt P98155); assay: pH affinity ELISA, coated target (Example 13)
[4] = target: very low-density lipoprotein receptor (UniProt P98155); assay: pH affinity ELISA, coated target, FIG. 3C
[5] = target: Sortilin (UniProt Q99523); assay: pH affinity ELISA, coated target

Measured: binding

Apolipoprotein E2 (from UniProt P02649 19-317) (ligand)
binds: [1] | [2]

Apolipoprotein E3 (from UniProt P02649 19-317) (ligand)
binds: [3] | [4]

Apolipoprotein E4 (from UniProt P02649 19-317) (ligand)
binds: all assays above
